Experimental data taken from US8486370B2, “Heterocyclic ligands for integrin imaging and therapy” (The Regents of the University of California, priority 2006, dated 2013).
For at least one compound, name, drawing or mass did not settle the structure.

Chains of the proteins cited; added tags and fusions are not shown. Residues count along the entry.
UniProt P13612, 34-1032: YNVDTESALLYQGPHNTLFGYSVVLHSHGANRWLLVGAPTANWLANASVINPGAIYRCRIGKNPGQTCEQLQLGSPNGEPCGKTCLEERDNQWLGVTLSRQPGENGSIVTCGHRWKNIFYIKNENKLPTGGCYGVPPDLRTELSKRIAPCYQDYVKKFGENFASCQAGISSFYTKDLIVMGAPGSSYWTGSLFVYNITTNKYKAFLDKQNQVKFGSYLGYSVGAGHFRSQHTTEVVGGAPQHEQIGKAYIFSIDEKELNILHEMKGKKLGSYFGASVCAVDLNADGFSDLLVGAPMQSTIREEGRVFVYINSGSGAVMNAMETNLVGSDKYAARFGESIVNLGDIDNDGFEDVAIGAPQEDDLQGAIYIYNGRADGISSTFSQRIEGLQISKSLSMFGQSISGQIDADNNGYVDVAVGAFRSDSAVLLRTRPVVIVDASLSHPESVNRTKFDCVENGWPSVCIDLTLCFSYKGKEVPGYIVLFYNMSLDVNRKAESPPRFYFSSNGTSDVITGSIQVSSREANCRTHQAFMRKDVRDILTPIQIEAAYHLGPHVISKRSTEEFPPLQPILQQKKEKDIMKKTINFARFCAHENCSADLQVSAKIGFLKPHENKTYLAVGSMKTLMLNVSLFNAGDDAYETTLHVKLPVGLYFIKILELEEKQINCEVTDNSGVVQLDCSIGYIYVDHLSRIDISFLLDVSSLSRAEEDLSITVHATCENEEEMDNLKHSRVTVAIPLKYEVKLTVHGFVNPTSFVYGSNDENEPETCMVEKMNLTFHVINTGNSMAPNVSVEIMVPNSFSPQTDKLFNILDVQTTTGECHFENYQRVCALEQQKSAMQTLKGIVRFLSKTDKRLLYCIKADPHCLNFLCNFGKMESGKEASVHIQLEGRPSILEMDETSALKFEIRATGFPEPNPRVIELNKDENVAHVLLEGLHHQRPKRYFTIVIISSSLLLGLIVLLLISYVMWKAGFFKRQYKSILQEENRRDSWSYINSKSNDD

biological target: T1, α4β1 integrin (Homo sapiens, UniProt P05556+P13612); assay: Molt4 T-cell leukemia adhesion assay (inhibition of α4β1-mediated cell adhesion to CS-1 peptide); assay type: cell-based; settings: Molt4 cells, adhesion to biotin-conjugated CS-1 peptide, 1 mM Mn2+ TBS, 30 min at 37° C.
T1 construct: adding a volume of 80 μL consisted of 1.3×10^5 Molt4 cells; endogenous in cells; host or cells: Molt4 T-cell leukemia cells
Description: α4β1 integrins are cell surface heterodimeric glycoproteins that mediate cell adhesion to vascular cell adhesion molecule-1 (VCAM-1 or CD 106) as well as to extracellular matrix (ECM) protein fibronectin (FN). Integrin expression and function depend on cell activation. The dynamic changes in integrin affinity, avidity, or activation state are implicated in cell migration, survival and apoptosis, cancer development and metastasis. Binding affinities (IC50s) of the ligands were studied in a Molt4 T-cell leukemia adhesion assay by inhibiting the α4β1-mediated cell adhesion to CS-1 peptide ([…]), which is the binding motif of fibronectin to α4β1 receptor.
General Procedure for Cell Adhesion Assay:
96-well plates were prepared by coating them with 5 μg/mL neutravidin for a one-hour period, followed by adding […] biotin-conjugated CS-1 peptide. The wells were then blocked with 1% […] in phosphate buffer saline (PBS) solution, followed by adding a volume of 80 μL consisted of 1.3×10^5 Molt4 cells, and finally different dilutions of tested ligands in binding buffer (1 mM Mn^2+ TBS), were added to each well. To allow binding, the plates were incubated for 30 min at 37° C., followed by washing of unbound cells with PBS. Bound cells were fixed with 10% formalin buffered in phosphate for 30 min and stained with 0.5% crystal violet. After washing and drying at room temperature, the dye was dissolved in 1% SDS, and absorbance at 570 nm was measured using a 96-well TECAN OD UV/Vis spectrophotometer. Inhibition was calculated as a percentage resulting from the concentration-dependent curve.

`NC(=O)C1(NC(=O)[C@H](CCCC(=O)O)NC(=O)[C@H](CCCCNC(=O)/C=C/c2cccnc2)NC(=O)CCc2ccc(Nc3nc4cc(Br)ccc4[nH]3)cc2)CCCCC1` [KLCA11] and `NC(=O)C1(NC(=O)[C@H](CCCC(=O)O)NC(=O)[C@H](CCCCNC(=O)/C=C/c2cccnc2)NC(=O)c2ccc(Nc3nc4ccccc4s3)cc2)CCCCC1` [KLCA19] are within 1.5-fold of each other in IC50: 379 nM for the first, 347 nM for the second.

Compound `Cc1cccc2oc(Nc3ccc(C(=O)N[C@@H](CCCCNC(=O)/C=C/c4cccnc4)C(=O)N[C@@H](CCCC(=O)O)C(=O)NC4(C(N)=O)CCCCC4)cc3)nc12` [KCLA17] has an IC50 of 1000 nM.
